The list shows a part of the results. Some structures show a salt or complex split into parts, the way the source records it.
Test: HoxA9-arrested leukemia cell differentiation promoters – flow cytometry, MLPCN library, primary screen (AID 624256);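 also: cells exposed to compound for four days before flow analysis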
Settings: ER-HoxA9 myeloid progenitors, lysozyme-GFP differentiation, measured here: differentiation confirmed by MAC1 staining, at 10 µM, stronger effect = higher value

| Compound | GFP+ MAC1+ double positive [%] |
| --- | --- |
| CCOC(=O)Nc1ccc([As](=O)(O)O)c(O)c1 | 0.5 |
| CC1CCNP(=O)(N(CCCl)CCCl)O1 (stereo not given) | 1.8 |
| COP(=O)(OC)N1CC1c1ccccc1 (stereo not given) | 0.3 |
| Cc1cc(SC(NC(=O)c2ccccc2)C(Cl)(Cl)Cl)nc(C(C)C)n1 (stereo not given) | 0.6 |
| CCCCOc1ccc(C(=O)NCC2(N3CCCCC3)CCCCC2)cc1OC | 0.6 |
| CP(=S)(Nn1cnnc1)Oc1ccccc1 (stereo not given) | 1.1 |
| CCOC(=O)Nc1cccc([As](=O)(O)O)c1 | 1 |
| COc1ccccc1OP(C)(=O)Nc1ccccc1 (stereo not given) | 0.1 |
| O=P(Nc1ccccn1)(c1cccc2ccccc12)c1cccc2ccccc12 | 0.2 |
| Cc1cc(SC(NC=O)C(Cl)(Cl)Cl)ncn1 (stereo not given) | 0.1 |
| O=[N+]([O-])c1ccc(Nc2ccc(Oc3ccc([N+](=O)[O-])cc3[N+](=O)[O-])cc2)c([N+](=O)[O-])c1 | 0.3 |
| CP(=O)(Nc1ccccc1Br)Oc1ccccc1 (stereo not given) | 0.4 |
| CP(=O)(Oc1ccccc1)OC(c1ccccc1)C(F)(F)F (stereo not given) | 0.5 |
| COC(=O)C1(C)COP(=O)(N2CCCC2)OC1 (stereo not given) | 1.5 |
| COP1(=S)c2c(C)nn(CCC#N)c2N=C(c2ccc(F)cc2)N1C (stereo not given) | 3.2 |
| Cc1ccc(Nc2c([N+](=O)[O-])cc([N+](=O)[O-])cc2[N+](=O)[O-])cc1 | 2.9 |
| CP(=O)(Nc1ccc(SC(F)(F)F)cc1)Oc1ccc(Cl)cc1 (stereo not given) | 0.1 |
| Cc1cc(C)cc(OP(C)(=O)Nc2ccc(SC(F)(F)F)cc2)c1 (stereo not given) | 0.8 |
| O=C(Nc1ccncc1[N+](=O)[O-])c1ccc([N+](=O)[O-])cc1[N+](=O)[O-] | 0.7 |
| O=C(COc1ccccc1)OC1CN2CCC1CC2 (stereo not given) | 0.8 |
| CP(=O)(NC(=O)Nc1ccccc1)Oc1ccccc1 (stereo not given) | 3.2 |
| CCc1ccc(OP(C)(=O)N2CCN(c3ccc([N+](=O)[O-])cc3)CC2)cc1 (stereo not given) | 0.3 |
| CSc1ccc(Nc2c([N+](=O)[O-])cc([N+](=O)[O-])cc2[N+](=O)[O-])cc1 | 0.7 |

| Compound | GFP+ MAC1+ double positive [%] |
| --- | --- |
| CCOP(C)(=S)SCC(=O)NC(C)C(=O)O (stereo not given) | 0.7 |
| O=C(OC1CN2CCC1CC2)c1cccc([N+](=O)[O-])c1 (stereo not given) | 0.6 |
| CCOC(=O)c1ccc(NC(=O)C(C)(CCl)SC)cc1 (stereo not given) | 0.4 |
| CCOC(=O)c1ccc(NP(C)(=O)Oc2ccc(OC)cc2)cc1 (stereo not given) | 1.8 |
| O=[N+]([O-])c1cc([N+](=O)[O-])c(O)c([N+](=O)[O-])c1.c1ccc(Oc2ccncc2)cc1 | 1.2 |
| CCC(C)N(CC(C)C)C(=S)SC(NC(C)=O)C(Cl)(Cl)Cl (stereo not given) | 0.6 |
| CP(=O)(Nc1ccccn1)Oc1ccc(Cl)cc1 (stereo not given) | 0.6 |
| COc1ccc(C2=NCC(CBr)S2)cc1 (stereo not given) | 0.5 |
| COc1ccc(OP(C)(=O)Nc2ccc(Br)cc2)cc1 (stereo not given) | 0.9 |
| CCN(CC)CC(O)COC(=O)C(O)(c1ccccc1)C1CCCCC1 (stereo not given) | 0.6 |
| CCc1ccc(OP(C)(=O)Nc2cccnc2)cc1 (stereo not given) | 1.1 |
| O=[N+]([O-])c1cc([N+](=O)[O-])c(CCNc2ccccc2)c([N+](=O)[O-])c1 | 2.1 |
| CP(=O)(Oc1ccccc1)N1CCOC1=O (stereo not given) | 0.6 |
| O=C(OCCCN1CCCC1)C(O)(c1ccccc1)C1CCCCC1 (stereo not given) | 0.2 |
| O=[N+]([O-])c1cccc2n[nH]nc12 | 0.6 |
| CC(=O)N1C2C3N(C(C)=O)C1C1N(C(C)=O)C(C(N1C(C)=O)N3C(C)=O)N2C(C)=O | 0.9 |
| COc1ccccc1OP(C)(=O)Nc1c(C)n(C)n(-c2ccccc2)c1=O (stereo not given) | 0.7 |
| CP(=O)(Nc1ccc(Cl)cc1)Oc1ccc(F)cc1 (stereo not given) | 11.8 |
| CCN(/C(=N/P(=O)(N1CCOCC1)N1CCOCC1)N1CCOCC1)c1ccc(OC)cc1 | 1.2 |
| C[N+]1=C2C=CC=CC=C2SC12C([N+](=O)[O-])=CC([N+](=O)[O-])=C[C-]2[N+](=O)[O-] (stereo not given) | 0.2 |
| COc1ccccc1OP(C)(=O)Nc1ccccc1Br (stereo not given) | 0.2 |
| CC(C)(C)c1ccc(OP(C)(=O)O)cc1 | 0.9 |
| Nc1ccc([As](=O)(O)c2ccc(N)cc2)cc1 | 0.6 |

| Compound | GFP+ MAC1+ double positive [%] |
| --- | --- |
| CC1CCN(C(=O)Oc2c(Cl)cc(Cl)c3cccnc23)CC1 | 1 |
| c1cc(-c2nn[nH]n2)ccc1-c1nn[nH]n1 | 0.3 |
| CN(C)C(=O)OCCc1n(C)cc[n+]1C | 0.4 |
| CC(C)c1nc(Nc2ccccc2)n(P(=O)(N(C)C)N(C)C)n1 | 1.5 |
| CC(C)=N/N=C(\N)N[N+](=O)[O-] | 0.2 |
| O=P1(N(CCCl)CCCl)OCCCS1 (stereo not given) | 1 |
| CP(=O)(OC12CC3CC(CC(C3)C1)C2)OC12CC3CC(CC(C3)C1)C2 | 1.8 |
| CCOC(=O)c1ccc(NP(C)(=O)Oc2ccc(Cl)cc2)cc1 (stereo not given) | 0.3 |
| CC(C)(C)C(=O)NC(Sc1ccncn1)C(Cl)(Cl)Cl (stereo not given) | 0.5 |
| O=C(O)CNc1ccc([As](=O)(O)O)cc1 | 0.2 |
| COC(=O)C1(C)COP(=O)(Nc2ccccc2)OC1 (stereo not given) | 0.8 |
| O=[N+]([O-])c1cccc(NC2=NCC(CBr)S2)c1 (stereo not given) | 0.9 |
| O=P(Nc1nc2ccc(Cl)cc2s1)(c1ccccc1)c1ccccc1 | 0.4 |
| Cc1cc(C)cc(OP(C)(=O)Nc2cccc(C(F)(F)F)c2)c1 (stereo not given) | 0.5 |
| CN(C)P(=O)(N(C)C)n1c(Nc2ccccc2)nnc1-c1ccccc1 | 1.7 |
| O=C1C(O)=C([N+](=O)[O-])C(=O)C(O)=C1[N+](=O)[O-] | 1.1 |
| CCCC1OP(N)(=O)OCC1CC (stereo not given) | 0.6 |
| CC(=O)Nc1ccc([As](=O)(O)O)cc1 | 0.4 |
| O=C(O)c1ccccc1[As](=O)(O)O | 0.7 |
| COc1ccc(OP(C)(=O)Nc2ccccc2Br)cc1 (stereo not given) | 0.3 |
| COc1ccccc1OP(C)(=O)Nc1ccc(C)c(C)c1 (stereo not given) | 0.4 |
| Cc1ccc(NP(=O)(Oc2ccccc2F)Oc2ccccc2F)nc1 | 0.4 |
| CN(C(=O)Cc1ccc(Cl)c(Cl)c1)[C@H]1CCCC[C@@H]1N1CCCC1 | 3.2 |

| Compound | GFP+ MAC1+ double positive [%] |
| --- | --- |
| Cc1cc(SC(NC(=O)c2ccc(F)cc2)C(Cl)(Cl)Cl)ncn1 (stereo not given) | 0.3 |
| CCOP(=O)(Nc1ccccc1)OCC | 0.2 |
| CCCCCCCCCCCCCCCC1C[N+](C)(C)CCOP(C)(=O)O1 (stereo not given) | 1.3 |
| CP(=O)(OCCOc1ccccc1)OCCOc1ccccc1 | 0.6 |
| Nc1cccc2ccc([As](=O)(O)O)cc12 | 1.5 |
| CCN(N=Nc1nonc1N)c1nonc1N | 0.7 |
| Cc1ccc(N/C(=N/P(=O)(N2CCOCC2)N2CCOCC2)N2CCOCC2)cc1 | 0.7 |
| CN(C(=O)Cc1ccc(Cl)c(Cl)c1)[C@H]1CCCC[C@H]1N1CCCC1 | 2.7 |
| COc1ccccc1OP(C)(=O)Nc1ccc(Br)cc1 (stereo not given) | 0.3 |
| NC(=O)c1cc([N+](=O)[O-])cc([N+](=O)[O-])c1N | 0.4 |
| CN1CCCC(OC(=O)C(c2ccccc2)c2ccccc2)C1 (stereo not given) | 1.1 |
| Clc1ccc(Cl)c(NC2=NCC(CBr)S2)c1 (stereo not given) | 0.1 |
| CN(C)CCOC(=O)C(O)(c1ccccc1)C1CCCC1 (stereo not given) | 5.7 |
| Cc1ccc(OP(=O)(Nc2nccs2)Oc2ccc(C)cc2)cc1 | 0.1 |
| COc1ccccc1OP(=O)(Nc1ccc(C)cn1)Oc1ccccc1OC | 0.2 |
| COc1ccc(OP(C)(=O)Nc2ccccn2)cc1 (stereo not given) | 6.4 |
| O=C(NC(Sc1ccncn1)C(Cl)(Cl)Cl)c1ccccc1 (stereo not given) | 0.5 |
| Oc1ccccc1CNc1ccccn1 | 0.7 |
| Cc1c(NP(C)(=O)Oc2ccc(C(C)C)cc2)c(=O)n(-c2ccccc2)n1C (stereo not given) | 0.2 |
| Nc1cc(N)c2nonc2c1[N+](=O)[O-] | 0.5 |
| CC(C)CC(=O)NC(Sc1ccc(Cl)cc1)C(Cl)(Cl)Cl (stereo not given) | 6.8 |
| O=[N+]([O-])c1cc([N+](=O)[O-])c(Nc2ccccn2)c([N+](=O)[O-])c1 | 1.1 |
| O=[N+]([O-])C1C(O)C(O)C([N+](=O)[O-])C(O)C1O (stereo not given) | 1.3 |

| Compound | GFP+ MAC1+ double positive [%] |
| --- | --- |
| COc1ccccc1OP(C)(=O)Nc1ccc(C)cc1C (stereo not given) | 0.6 |
| CP(=O)(Nc1ccccn1)Oc1ccccc1 (stereo not given) | 1.2 |
| CCOc1ccc(C2=NCC(CBr)S2)cc1 (stereo not given) | 0.1 |
| O=[N+]([O-])c1cc([N+](=O)[O-])c(Nc2ccc(Cl)cc2)c([N+](=O)[O-])c1 | 0.6 |
| O=P1(Nc2nc3ccc(Cl)cc3s2)COc2ccccc2O1 (stereo not given) | 0.7 |
| CC(C)c1ccc(OP(C)(=O)Nc2ccc(SC(F)(F)F)cc2)cc1 (stereo not given) | 0.3 |
| CC(C)(C)C(=O)NC(Sc1ccccc1)C(Cl)(Cl)Cl (stereo not given) | 0.3 |
| CP(=O)(Nc1ccccc1F)Oc1ccccc1 (stereo not given) | 2 |
| CCc1cc(O)c([N+](=O)[O-])c(C)c1[N+](=O)[O-] | 0.5 |
| C[C@H]1OP(=O)(Oc2ccccc2)C[C@@H]2O[C@@H]21 (stereo not given in full) | 1.6 |
| C[C@@H]1C=CCP(=O)(Oc2ccccc2)O1 (stereo not given in full) | 0.3 |
| Cc1ccccc1CN(C)C(=O)COC(=O)C(O)(c1ccccc1)c1ccccc1 | 0.7 |
| O=C(OCCN1CCN(CCOCc2ccccc2)CC1)C(O)(c1ccccc1)c1ccccc1 | 0.9 |
| COC(=O)C1(C)COP(=O)(NCc2ccccc2)OC1 (stereo not given) | 1 |
| O=C(OC1CN2CCC1CC2)c1ccc([N+](=O)[O-])cc1 (stereo not given) | 0.8 |
| CC(=O)c1ccc(N2CC2c2ccncc2)cc1 (stereo not given) | 0.2 |
| CC(=O)Nc1ccc(Oc2c([N+](=O)[O-])cc([N+](=O)[O-])cc2[N+](=O)[O-])cc1 | 0.4 |
| CC(=O)Nc1ccc([As](=O)(O)O)c(O)c1 | 0.1 |
| COc1ccc2c(c1O)-c1c(O)c(OC)cc3c1[C@H](C2)[N+](C)(C)CC3.O=[N+]([O-])c1cc([N+](=O)[O-])c([O-])c([N+](=O)[O-])c1[O-] | 0.8 |
| Cc1ccc(NP(=O)(Oc2cccc(C)c2)Oc2cccc(C)c2)nc1 | 0.5 |
| CCN(CC)CCCNc1ccccc1[N+](=O)[O-].O=[N+]([O-])c1cc([N+](=O)[O-])c(O)c([N+](=O)[O-])c1 | 1 |
| c1ccc(-c2nn[nH]n2)c(-c2nn[nH]n2)c1 | 0.2 |
| COc1ccc(OP(C)(=O)Nc2ccc(SC(F)(F)F)cc2)cc1 (stereo not given) | 0.3 |

Reference: PubChem BioAssay AID624256 (NMMLSC, 2012)
